Experimental findings from PMC5346732 are described below.

Sequences of proteins named here, by UniProt entry; tags and fusion partners are left off.
UniProt P35222: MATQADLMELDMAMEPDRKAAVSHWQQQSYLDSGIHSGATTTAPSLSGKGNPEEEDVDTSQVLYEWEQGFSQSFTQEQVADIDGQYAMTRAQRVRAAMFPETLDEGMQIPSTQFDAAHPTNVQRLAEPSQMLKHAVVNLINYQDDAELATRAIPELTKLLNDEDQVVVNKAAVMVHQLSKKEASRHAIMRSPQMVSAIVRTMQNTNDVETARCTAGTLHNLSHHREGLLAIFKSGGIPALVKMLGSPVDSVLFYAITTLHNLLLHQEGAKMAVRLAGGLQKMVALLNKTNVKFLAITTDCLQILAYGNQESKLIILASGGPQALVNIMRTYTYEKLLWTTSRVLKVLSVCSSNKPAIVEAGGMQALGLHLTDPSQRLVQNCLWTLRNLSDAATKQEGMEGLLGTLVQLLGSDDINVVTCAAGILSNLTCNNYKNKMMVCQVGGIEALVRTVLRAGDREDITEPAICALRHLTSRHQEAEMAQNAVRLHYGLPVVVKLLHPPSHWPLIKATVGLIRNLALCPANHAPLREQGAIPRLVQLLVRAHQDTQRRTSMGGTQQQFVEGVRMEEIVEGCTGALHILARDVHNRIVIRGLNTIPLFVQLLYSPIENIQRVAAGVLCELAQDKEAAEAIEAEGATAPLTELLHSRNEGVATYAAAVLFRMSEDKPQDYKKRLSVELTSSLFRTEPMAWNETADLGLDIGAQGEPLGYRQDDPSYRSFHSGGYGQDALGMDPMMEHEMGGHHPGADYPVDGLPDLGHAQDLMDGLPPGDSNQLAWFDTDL
UniProt Q93008: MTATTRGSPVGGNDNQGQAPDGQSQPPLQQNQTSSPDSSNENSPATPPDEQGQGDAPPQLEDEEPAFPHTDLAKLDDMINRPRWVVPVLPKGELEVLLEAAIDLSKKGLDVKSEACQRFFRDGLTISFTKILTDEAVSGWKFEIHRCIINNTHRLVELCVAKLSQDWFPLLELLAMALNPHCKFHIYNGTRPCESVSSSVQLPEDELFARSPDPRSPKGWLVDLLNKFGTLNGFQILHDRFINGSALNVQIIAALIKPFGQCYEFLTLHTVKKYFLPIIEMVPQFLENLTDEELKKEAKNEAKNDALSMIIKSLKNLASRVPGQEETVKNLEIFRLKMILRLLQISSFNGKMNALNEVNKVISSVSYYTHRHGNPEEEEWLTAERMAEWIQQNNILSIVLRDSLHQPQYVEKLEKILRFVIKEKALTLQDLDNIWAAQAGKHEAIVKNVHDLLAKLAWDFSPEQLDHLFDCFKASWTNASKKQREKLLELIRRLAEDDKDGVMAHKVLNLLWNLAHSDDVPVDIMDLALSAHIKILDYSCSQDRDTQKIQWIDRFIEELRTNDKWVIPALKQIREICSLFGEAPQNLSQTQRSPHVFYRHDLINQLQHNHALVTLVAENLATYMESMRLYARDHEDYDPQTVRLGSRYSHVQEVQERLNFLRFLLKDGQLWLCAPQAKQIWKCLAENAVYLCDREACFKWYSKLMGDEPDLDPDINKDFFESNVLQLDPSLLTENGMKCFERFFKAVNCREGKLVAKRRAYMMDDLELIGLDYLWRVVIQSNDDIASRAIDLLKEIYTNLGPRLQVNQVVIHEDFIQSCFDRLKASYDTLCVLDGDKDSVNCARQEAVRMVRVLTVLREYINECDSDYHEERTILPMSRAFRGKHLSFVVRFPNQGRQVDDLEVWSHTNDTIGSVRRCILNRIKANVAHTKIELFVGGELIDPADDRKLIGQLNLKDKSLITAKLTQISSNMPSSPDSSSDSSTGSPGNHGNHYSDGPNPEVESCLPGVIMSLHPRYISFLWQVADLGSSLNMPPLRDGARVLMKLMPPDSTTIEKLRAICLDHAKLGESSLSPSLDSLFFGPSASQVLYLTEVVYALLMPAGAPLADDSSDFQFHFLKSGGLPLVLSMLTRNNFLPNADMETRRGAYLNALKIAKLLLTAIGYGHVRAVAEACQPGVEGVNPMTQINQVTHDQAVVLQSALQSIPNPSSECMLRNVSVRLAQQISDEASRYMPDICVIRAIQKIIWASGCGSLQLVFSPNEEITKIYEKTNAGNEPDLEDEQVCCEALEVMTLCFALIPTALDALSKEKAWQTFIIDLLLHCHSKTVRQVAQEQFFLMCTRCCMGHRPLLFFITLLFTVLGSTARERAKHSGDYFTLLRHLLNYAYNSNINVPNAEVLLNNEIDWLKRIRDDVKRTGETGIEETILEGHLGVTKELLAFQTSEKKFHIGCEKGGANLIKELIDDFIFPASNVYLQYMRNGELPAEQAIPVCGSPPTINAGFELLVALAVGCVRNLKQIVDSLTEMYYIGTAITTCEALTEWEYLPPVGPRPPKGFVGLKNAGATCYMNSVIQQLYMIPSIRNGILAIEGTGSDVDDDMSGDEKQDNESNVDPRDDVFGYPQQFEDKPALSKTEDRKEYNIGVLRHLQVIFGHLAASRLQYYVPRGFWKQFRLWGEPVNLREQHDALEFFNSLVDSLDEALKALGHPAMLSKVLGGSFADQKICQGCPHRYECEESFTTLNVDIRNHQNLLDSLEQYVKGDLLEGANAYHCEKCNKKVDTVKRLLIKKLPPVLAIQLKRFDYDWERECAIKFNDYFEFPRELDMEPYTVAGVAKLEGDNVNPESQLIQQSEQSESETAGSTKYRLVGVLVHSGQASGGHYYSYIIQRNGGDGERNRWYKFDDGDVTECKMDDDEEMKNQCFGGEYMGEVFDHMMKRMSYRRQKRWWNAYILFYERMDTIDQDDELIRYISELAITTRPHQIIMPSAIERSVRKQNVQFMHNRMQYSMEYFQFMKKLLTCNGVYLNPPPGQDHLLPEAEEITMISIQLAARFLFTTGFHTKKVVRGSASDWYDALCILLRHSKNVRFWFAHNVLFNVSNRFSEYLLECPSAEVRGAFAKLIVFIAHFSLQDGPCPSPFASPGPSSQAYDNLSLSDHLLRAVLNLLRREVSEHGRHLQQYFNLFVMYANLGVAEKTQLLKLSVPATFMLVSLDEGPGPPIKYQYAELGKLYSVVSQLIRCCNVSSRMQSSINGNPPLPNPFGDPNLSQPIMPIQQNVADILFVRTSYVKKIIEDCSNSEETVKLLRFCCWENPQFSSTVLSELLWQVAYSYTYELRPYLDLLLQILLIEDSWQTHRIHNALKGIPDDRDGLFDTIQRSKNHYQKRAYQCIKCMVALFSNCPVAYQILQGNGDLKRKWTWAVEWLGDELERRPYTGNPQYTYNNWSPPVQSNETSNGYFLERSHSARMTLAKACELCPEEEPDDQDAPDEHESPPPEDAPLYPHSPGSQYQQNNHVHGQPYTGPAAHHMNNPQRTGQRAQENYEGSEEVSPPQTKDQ

The target in experiment [1] is β-catenin (UniProt P35222). Nature of the experiment: co-IP; HEK293T cells treated with pCMV-β-catenin plasmid for 48 h; lysate immunoprecipitated with USP9X antibody or with β-catenin antibody, western blot. (A western blot detects proteins with antibodies after separation by electrophoresis.)
The target of experiment [2] is USP9X (human (endogenous in HEK293T)) (UniProt Q93008). The description is as above.

No constants are given. Whether binding was seen depends on the method and setting. Binding seen in cells or lysates may run through a third protein. Some entries that bind do so weakly or less than the wild type.

Turning to “USP9X (from UniProt Q93008 1-2554) (enzyme)”, the binding entry in experiment [1] is “binds”.
In the case of β-catenin (from UniProt P35222 1-781), the binding result in experiment [2] is reported as “binds”.
